Results taken from publication doi:10.1101/2019.12.11.872606.
No constants are given. Whether binding was seen depends on the method and setting. In cells and extracts the contact can be indirect. Some entries that bind do so weakly or less than the wild type.

Amino acid sequences for entries named in this document (tags omitted). Residues count along the entry.
UniProt Q9Z0R4: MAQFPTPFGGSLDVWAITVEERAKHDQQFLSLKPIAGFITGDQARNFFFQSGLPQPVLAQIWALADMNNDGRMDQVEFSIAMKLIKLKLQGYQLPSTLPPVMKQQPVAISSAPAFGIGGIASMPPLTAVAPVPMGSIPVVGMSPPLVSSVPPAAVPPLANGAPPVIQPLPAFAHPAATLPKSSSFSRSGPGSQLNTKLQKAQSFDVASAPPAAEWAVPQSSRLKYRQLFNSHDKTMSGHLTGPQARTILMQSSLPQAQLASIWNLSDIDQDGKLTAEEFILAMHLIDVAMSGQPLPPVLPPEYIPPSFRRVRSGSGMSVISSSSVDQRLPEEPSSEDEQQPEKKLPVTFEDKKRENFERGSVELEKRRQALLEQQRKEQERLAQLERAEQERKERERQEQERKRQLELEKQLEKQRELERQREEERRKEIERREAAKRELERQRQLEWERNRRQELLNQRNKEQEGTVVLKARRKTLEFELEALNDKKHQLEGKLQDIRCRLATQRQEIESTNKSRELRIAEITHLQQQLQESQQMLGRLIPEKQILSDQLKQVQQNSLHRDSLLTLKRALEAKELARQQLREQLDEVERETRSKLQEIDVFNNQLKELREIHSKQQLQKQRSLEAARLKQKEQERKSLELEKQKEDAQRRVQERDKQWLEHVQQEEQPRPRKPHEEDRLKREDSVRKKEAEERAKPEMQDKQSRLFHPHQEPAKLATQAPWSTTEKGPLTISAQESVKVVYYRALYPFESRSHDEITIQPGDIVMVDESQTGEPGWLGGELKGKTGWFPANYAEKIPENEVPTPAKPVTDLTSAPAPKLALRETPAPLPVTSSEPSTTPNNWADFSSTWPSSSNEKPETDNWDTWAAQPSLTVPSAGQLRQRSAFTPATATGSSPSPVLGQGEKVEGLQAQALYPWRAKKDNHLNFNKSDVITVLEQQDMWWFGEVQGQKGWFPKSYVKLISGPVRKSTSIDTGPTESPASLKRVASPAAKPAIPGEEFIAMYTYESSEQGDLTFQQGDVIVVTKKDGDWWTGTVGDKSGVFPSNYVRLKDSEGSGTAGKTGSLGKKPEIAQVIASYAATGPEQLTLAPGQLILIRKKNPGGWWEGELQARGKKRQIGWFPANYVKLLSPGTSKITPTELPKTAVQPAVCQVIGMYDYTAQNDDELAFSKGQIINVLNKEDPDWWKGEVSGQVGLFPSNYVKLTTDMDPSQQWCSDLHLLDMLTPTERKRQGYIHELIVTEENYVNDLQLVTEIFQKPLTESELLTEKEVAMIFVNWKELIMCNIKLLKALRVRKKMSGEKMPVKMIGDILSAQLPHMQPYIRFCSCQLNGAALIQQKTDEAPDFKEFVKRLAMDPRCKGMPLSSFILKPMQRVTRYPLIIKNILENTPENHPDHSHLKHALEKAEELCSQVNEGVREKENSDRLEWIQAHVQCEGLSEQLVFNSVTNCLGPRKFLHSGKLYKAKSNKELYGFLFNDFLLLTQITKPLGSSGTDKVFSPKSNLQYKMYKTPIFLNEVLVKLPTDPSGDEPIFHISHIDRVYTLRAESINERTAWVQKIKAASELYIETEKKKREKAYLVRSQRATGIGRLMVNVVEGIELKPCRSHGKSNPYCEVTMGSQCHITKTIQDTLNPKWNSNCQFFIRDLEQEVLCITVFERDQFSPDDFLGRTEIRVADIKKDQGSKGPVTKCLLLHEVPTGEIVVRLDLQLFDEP
UniProt Q9ERC8, residues 18-2013: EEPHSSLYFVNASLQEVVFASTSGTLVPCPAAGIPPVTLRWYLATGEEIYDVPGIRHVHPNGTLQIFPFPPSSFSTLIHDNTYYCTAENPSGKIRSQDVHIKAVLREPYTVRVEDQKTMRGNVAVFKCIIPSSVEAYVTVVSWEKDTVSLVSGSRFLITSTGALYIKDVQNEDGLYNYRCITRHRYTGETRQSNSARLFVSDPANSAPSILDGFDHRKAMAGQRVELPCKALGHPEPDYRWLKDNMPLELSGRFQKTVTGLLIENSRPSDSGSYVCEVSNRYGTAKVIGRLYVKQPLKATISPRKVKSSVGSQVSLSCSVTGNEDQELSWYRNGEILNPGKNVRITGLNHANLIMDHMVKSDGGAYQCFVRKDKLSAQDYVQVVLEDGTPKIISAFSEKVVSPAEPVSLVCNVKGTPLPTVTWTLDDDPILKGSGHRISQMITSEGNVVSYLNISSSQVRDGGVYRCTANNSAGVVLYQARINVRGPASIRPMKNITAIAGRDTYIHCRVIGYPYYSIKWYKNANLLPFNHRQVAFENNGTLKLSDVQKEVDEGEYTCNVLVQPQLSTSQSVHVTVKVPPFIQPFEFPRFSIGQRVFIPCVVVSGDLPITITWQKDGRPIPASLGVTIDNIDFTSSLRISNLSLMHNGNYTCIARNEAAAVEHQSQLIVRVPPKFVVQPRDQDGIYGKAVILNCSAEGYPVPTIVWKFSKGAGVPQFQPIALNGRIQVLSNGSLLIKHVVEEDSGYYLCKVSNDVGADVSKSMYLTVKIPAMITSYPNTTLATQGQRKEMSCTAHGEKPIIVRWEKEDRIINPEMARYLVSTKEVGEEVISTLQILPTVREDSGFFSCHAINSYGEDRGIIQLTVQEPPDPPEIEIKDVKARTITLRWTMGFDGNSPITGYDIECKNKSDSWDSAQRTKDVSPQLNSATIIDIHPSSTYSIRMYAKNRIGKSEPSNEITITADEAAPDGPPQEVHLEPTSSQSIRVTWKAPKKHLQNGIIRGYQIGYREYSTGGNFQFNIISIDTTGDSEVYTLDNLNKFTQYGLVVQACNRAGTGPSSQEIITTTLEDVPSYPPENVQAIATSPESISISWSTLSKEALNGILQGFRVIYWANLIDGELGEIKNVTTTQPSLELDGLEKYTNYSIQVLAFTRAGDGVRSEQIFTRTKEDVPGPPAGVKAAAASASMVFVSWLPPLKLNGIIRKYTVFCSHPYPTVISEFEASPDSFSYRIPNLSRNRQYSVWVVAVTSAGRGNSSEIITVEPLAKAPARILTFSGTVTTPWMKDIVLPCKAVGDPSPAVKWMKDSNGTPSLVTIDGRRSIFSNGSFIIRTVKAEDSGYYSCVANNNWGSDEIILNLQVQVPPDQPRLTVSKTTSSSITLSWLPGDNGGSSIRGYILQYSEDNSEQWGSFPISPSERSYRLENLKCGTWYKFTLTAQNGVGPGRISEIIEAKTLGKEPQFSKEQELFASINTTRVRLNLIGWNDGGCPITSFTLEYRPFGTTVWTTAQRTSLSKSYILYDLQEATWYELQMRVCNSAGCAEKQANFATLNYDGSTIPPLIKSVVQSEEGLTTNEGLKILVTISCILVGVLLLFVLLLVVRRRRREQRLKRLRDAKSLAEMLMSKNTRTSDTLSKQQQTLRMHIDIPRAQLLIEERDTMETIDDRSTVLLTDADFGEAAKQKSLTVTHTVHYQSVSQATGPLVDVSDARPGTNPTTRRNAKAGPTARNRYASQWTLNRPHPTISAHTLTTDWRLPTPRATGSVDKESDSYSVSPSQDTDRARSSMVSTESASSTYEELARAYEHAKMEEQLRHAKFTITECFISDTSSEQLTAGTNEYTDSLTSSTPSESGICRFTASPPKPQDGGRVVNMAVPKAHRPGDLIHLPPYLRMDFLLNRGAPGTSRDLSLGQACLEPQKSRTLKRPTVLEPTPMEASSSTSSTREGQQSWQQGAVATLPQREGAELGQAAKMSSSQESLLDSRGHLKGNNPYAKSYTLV
UniProt Q8C0T5: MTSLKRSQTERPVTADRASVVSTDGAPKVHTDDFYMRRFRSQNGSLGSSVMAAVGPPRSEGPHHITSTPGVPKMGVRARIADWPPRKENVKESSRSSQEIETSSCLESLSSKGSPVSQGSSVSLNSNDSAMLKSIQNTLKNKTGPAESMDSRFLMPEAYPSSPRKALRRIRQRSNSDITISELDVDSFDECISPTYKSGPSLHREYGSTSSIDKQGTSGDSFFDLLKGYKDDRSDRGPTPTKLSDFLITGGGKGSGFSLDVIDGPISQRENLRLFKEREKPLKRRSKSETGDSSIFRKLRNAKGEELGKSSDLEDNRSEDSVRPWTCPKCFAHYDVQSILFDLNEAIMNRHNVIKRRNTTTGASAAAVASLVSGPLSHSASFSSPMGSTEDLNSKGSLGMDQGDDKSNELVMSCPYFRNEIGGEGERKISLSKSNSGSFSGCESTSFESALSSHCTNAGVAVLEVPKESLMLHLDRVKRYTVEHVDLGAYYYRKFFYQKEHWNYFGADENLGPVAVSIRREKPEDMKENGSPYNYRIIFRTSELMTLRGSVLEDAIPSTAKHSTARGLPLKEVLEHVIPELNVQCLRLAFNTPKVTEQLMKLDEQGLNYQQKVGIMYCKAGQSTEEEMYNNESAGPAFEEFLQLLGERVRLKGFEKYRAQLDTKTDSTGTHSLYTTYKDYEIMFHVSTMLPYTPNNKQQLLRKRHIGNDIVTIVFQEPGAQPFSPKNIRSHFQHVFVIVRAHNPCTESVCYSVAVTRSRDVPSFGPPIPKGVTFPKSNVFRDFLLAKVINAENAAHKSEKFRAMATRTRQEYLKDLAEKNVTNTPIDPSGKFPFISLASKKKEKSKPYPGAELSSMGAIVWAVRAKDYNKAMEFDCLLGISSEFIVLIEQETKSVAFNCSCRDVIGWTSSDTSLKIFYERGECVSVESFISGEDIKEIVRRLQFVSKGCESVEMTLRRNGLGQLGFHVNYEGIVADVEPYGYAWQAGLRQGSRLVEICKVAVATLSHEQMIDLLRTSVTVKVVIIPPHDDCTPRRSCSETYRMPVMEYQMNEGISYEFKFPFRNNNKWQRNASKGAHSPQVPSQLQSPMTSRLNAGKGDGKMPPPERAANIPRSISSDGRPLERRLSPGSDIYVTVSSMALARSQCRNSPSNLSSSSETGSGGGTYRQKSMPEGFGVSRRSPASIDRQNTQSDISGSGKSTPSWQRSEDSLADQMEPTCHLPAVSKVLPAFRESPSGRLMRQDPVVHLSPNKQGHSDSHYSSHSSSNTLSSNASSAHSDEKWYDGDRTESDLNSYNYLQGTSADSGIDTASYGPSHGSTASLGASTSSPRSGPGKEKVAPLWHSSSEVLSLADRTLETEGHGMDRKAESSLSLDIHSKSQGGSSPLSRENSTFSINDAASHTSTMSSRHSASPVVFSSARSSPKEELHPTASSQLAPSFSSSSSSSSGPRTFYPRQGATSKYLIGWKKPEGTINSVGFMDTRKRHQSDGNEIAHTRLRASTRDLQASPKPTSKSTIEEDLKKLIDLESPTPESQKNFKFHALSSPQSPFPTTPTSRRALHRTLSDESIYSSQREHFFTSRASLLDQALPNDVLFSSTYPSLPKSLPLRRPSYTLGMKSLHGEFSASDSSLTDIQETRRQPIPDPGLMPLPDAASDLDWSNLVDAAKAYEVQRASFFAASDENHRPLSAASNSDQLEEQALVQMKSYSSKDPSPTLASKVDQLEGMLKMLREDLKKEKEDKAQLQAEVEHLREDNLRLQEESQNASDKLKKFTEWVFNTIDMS

How the values were obtained:
[1] = target: Dyrk1a (endogenous, mouse) (mouse (endogenous in cortical neurons and adult cortex)) (UniProt Q61214); assay: co-IP
[2] = target: Dyrk1a (endogenous, mouse) (mouse (endogenous in cortical neurons and adult cortex)) (UniProt Q61214); assay: co-IP; remark: listed apart in the source
[3] = target: Dyrk1a (endogenous, mouse) (mouse (endogenous in cortical neurons and adult cortex)) (UniProt Q61214); assay: proximity ligation
[4] = target: Itsn1 (endogenous, mouse cortical neurons) (mouse (endogenous in primary cortical neurons)) (UniProt Q9Z0R4); assay: proximity ligation

Dscam (endogenous, mouse) (from UniProt Q9ERC8 18-2013)
binding [1]: binds | binding [2]: binds

Sipa1l1 (endogenous, mouse cortical neurons) (from UniProt Q8C0T5 1-1782)
binding [3]: binds

B1: Dlgap1 (endogenous, mouse cortical neurons) (protein, UniProt Q9D415 1-992)
chain: MKGLSGSRSHHHGITCEAACDSLSHHSDHKPYLLSPVDHHPADHPYYTQRNSFQAECVGPFSDPLASSTFPRRHYTSQQELKDESALVPRTLATKANRLPTNLLDQFERQLPLSRDGYHTLQYKRTAVEHRSDSPGRIRHLVHSVQKLFTKSHSLEGPSKGSVNGGKASPDESQTLRYGKRSKSKERRSESKARSNASNASPTSPSWWSSDDNLDGDMCLYHTPSGVMTMGRCPDRSASQYFMEAYNTISEQAVKASRSNNDIKCSTCANLPVTLDAPLLKKSAWSSTLTVSRAREVYQKASVNMDQAMVKSEACQQERSCQYLQVPQDEWSGYTPRGKDDEIPCRRMRSGSYIKAMGDEDSGDSDTSPKPSPKVAARRESYLKATQPSLTELTTLKISNEHSPKLQIRSHSYLRAVSEVSINRSLDSLDPAGLLTSPKFRSRNESYMRAMSTISQVSEMEVNGQFESVCESVFSELESQAVEALDLPLPGCFRMRSHSYVRAIEKGCSQDDECVSLRSSSPPRTTTTVRTIQSSTGVIKLSSAVEVSSCITTYKKTPPPVPPRTTTKPFISITAQSSTESAQDAYMDGQGQRGDMISQSGLSNSTESLDSMKALTAAIEAANAQIHGPASQHMGSNAAAVTTTTTIATVTTEDRKKDFKKNRCLSIGIQVDDAEEPEKMAESKTSNKFQSVGVQVEEEKCFRRFTRSNSVTTAVQADLDFHDNLENSLESIEDNSCPGPMARQFSRDASTSTVSIQGSGNHYHACAADDDFDTDFDPSILPPPDPWIDSITEDPLEAVQRSVCHRDGHWFLKLLQAERDRMEGWCKLMEREERENNLPEDILGKIRTAVGSAQLLMAQKFYQFRELCEENLNPNAHPRPTSQDLAGFWDMLQLSIENISMKFDELHQLKANNWKQMDPLDKKERRAPPPVPKKPAKGPAPLIRERSLESSQRQEARKRLMAAKRAASVRQNSATESAESIEIYIPEAQTRL
binding [4]: binds
